# This is one part of the list.
# Amino acid sequences for entries named in this document (tags omitted). A change or cut given only in a name is not applied to a line headed by its entry.
# UniProt Q9UJX3, whole entry, looked up: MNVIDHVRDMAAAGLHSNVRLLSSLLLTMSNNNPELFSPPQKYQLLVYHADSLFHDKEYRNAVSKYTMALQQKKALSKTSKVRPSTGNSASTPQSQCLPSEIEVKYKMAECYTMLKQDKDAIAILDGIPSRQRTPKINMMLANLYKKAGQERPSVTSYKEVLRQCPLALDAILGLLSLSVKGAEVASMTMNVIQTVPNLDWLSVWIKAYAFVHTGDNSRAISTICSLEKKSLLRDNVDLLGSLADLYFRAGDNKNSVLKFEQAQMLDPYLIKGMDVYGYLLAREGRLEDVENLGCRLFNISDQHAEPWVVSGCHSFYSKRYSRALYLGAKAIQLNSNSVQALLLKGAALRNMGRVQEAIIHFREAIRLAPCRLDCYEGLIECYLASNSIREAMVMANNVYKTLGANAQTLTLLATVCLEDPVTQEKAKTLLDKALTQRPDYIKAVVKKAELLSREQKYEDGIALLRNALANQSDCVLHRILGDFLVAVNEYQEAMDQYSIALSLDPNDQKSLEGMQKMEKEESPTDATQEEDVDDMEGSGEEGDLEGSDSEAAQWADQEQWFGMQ
# UniProt Q99996, whole entry, looked up: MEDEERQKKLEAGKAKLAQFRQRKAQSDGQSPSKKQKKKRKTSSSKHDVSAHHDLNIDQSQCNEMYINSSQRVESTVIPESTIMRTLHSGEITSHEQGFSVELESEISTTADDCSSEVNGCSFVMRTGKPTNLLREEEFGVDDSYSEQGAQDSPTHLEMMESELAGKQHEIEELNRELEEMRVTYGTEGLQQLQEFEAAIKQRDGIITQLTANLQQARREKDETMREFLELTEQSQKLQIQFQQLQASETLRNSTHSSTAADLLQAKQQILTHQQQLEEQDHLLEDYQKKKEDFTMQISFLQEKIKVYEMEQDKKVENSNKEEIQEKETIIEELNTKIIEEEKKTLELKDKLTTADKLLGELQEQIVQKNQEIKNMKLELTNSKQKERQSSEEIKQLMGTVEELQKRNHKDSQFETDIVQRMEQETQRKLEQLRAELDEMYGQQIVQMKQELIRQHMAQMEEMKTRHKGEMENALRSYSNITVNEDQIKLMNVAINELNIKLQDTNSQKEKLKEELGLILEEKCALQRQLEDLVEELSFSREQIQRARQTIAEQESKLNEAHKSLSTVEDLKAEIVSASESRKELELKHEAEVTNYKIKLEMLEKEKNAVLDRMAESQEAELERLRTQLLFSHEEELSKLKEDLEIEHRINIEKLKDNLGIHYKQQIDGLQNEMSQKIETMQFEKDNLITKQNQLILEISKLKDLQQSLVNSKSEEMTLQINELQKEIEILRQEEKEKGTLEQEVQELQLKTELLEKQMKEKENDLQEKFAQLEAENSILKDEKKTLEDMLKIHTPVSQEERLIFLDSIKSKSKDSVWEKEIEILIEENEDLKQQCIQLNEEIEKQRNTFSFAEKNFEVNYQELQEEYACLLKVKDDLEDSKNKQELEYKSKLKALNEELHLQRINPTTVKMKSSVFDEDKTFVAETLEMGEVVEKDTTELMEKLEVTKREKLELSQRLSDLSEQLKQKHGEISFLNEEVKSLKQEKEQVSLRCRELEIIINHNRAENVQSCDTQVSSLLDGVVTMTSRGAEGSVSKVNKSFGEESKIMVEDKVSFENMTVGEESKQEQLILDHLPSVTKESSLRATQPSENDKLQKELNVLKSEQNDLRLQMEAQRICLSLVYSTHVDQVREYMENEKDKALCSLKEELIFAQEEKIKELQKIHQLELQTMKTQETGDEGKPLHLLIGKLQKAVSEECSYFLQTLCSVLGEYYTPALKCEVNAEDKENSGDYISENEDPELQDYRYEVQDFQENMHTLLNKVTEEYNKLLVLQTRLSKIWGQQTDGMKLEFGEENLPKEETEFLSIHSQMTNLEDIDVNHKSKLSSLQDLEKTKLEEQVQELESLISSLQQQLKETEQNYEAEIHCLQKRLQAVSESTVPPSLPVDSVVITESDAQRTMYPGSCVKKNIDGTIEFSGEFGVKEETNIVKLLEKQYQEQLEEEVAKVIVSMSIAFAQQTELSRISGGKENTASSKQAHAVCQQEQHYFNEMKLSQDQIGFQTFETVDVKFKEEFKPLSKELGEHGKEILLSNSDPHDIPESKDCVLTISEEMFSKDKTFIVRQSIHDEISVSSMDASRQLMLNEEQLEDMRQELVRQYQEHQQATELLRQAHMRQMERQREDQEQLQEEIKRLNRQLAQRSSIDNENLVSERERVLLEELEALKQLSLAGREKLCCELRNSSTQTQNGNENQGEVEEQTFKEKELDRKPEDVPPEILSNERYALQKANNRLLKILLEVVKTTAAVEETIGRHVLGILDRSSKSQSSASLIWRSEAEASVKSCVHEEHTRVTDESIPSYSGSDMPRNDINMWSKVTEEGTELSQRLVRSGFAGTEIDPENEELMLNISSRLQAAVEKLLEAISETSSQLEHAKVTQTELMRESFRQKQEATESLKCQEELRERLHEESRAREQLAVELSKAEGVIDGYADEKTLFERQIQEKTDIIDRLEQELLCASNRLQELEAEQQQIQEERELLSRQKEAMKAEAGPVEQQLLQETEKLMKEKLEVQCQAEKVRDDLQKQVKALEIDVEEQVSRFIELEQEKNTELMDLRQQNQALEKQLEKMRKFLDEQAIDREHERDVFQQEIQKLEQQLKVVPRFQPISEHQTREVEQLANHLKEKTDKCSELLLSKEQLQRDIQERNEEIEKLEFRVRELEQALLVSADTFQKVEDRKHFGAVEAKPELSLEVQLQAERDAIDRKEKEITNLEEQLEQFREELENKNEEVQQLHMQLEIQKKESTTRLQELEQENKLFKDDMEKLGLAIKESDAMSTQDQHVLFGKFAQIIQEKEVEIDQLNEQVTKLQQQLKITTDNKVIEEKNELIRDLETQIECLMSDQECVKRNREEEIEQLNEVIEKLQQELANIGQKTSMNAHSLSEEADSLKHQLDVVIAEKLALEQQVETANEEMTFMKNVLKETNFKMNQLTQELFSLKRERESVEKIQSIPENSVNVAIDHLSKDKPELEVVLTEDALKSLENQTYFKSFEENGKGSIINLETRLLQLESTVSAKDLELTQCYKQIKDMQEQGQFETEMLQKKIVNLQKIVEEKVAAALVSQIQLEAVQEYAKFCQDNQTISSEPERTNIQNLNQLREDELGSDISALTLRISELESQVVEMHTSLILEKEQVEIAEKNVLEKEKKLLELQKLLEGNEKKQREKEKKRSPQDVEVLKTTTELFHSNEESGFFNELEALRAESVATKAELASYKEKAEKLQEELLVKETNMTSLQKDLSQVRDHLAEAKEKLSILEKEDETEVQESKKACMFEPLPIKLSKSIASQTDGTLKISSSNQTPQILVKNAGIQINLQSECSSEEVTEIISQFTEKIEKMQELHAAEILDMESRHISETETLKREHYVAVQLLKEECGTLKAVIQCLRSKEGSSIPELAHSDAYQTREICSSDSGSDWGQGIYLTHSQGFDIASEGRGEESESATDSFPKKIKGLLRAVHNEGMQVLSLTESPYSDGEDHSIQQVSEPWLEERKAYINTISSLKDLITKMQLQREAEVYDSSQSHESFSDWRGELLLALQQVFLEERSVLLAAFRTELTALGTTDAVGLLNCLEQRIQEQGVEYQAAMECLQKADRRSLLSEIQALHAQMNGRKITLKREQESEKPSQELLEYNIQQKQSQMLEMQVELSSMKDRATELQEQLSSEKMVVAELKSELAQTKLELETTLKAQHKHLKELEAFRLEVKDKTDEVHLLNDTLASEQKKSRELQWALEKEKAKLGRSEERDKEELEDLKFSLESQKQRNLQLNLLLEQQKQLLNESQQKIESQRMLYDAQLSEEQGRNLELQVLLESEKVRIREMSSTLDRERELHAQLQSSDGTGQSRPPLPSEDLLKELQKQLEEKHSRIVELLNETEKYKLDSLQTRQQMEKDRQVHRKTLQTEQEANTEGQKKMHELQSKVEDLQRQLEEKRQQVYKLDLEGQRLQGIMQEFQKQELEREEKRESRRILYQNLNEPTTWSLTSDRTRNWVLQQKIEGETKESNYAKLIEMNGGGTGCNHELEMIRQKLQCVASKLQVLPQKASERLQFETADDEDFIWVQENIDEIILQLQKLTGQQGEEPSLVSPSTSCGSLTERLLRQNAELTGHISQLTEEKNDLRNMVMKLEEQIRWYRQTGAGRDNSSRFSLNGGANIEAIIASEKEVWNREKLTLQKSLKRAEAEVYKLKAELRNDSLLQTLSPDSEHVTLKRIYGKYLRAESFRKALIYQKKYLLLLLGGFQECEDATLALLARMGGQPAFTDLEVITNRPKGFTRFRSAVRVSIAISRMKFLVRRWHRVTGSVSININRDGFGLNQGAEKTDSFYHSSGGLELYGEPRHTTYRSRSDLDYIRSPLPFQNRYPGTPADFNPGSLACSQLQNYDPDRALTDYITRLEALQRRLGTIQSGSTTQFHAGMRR
# UniProt Q12904: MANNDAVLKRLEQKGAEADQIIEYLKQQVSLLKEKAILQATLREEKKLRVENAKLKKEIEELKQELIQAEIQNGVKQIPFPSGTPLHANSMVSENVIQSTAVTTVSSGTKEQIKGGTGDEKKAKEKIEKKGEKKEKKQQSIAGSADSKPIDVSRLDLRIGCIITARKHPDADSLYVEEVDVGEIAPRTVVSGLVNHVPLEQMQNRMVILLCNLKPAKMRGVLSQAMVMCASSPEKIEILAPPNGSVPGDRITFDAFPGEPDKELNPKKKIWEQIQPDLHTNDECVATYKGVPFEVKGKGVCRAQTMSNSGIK
# UniProt Q13155: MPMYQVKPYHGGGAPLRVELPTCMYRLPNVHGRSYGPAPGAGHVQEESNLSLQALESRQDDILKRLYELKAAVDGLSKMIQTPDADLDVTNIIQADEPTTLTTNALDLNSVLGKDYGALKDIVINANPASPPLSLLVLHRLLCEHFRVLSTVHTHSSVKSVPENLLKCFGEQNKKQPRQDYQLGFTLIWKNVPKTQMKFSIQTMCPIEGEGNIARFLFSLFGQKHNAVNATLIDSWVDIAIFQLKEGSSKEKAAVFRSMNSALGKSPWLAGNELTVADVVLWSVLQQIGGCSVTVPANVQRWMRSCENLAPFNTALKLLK
# UniProt O00170: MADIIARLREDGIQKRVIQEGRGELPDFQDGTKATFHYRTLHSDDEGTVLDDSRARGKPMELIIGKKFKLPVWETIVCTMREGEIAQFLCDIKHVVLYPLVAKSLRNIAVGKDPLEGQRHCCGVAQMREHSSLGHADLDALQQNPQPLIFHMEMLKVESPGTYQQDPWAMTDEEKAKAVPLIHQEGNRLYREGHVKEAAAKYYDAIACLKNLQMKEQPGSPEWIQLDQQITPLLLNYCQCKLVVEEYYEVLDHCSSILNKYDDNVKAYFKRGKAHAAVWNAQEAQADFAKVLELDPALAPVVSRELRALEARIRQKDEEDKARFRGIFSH
# UniProt O43865, whole entry, looked up: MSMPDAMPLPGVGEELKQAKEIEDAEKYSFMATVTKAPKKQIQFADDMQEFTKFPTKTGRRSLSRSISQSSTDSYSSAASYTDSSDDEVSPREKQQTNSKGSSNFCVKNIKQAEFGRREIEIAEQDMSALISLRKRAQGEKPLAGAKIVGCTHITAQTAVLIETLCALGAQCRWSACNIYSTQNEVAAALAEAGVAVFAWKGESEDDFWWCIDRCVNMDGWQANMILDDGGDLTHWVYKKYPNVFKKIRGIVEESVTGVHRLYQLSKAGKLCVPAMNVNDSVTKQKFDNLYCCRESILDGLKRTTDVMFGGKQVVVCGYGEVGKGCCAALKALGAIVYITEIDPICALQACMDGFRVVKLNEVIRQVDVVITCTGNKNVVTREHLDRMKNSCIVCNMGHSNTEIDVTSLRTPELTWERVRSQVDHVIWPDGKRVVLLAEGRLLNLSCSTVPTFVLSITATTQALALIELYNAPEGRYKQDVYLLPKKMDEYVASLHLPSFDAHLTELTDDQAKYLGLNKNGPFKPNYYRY
# UniProt Q9NUQ2: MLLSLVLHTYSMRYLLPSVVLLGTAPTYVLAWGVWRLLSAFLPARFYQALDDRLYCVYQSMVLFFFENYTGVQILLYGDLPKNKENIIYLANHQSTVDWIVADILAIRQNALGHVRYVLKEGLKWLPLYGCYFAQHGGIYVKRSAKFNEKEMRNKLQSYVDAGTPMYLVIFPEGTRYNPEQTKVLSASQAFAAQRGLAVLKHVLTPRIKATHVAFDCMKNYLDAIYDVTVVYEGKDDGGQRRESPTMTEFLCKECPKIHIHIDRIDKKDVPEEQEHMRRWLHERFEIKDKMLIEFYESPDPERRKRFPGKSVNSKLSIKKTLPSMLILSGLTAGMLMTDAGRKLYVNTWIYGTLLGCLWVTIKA
# UniProt Q9UM13, whole entry, looked up: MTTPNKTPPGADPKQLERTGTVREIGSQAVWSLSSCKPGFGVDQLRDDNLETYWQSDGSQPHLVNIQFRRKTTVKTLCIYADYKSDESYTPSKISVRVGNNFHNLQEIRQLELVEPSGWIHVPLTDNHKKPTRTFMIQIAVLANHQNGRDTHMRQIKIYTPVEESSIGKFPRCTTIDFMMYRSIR
# Compound: Cc1cc(ccc1-c1ccccc1)C(=O)N1CCCN(CC1)C(=O)CCl [compound 10]
# Assay: probe-labelled cysteine peptide fold change vs DMSO (competition) (log2 fold change); higher = less target engagement (more negative = stronger competition)
# Conditions: THP-1, incubation time: 4 h
# 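Note: competitive profiling in live THP-1 cells: cysteine peptides tagged with an iodoacetamide desthiobiotin (IA-DTB) probe, intensity after compound treatment relative to DMSO-treated cells.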
Target,probe-labelled cysteine peptide fold change (10 µM),probe-labelled cysteine peptide fold change (50 µM)
ANAPC7_Q9UJX3_509_NALANQSDCVLHR (UniProt Q9UJX3),0.113,-0.182
AKAP9_Q99996_1782_SCVHEEHTR (UniProt Q99996),-0.202,-0.115
AIMP1_Q12904_211_MVILLCNLKPAK (UniProt Q12904),-0.23,-0.422
AIMP2_Q13155_143_LLCEHFR (UniProt Q13155),-0.0723,0.013
AIP_O00170_254_LVVEEYYEVLDHCSSILNK (UniProt O00170),-0.102,-0.0879
AKAP9_Q99996_2125_CSELLLSK (UniProt Q99996),0.132,0.0128
AHCYL1_O43865_211_GESEDDFWWCIDR (UniProt O43865),0.307,0.247
AGPS_O00116_226_IVNLACK (UniProt O00116),0.238,-0.103
ALAS1_P13196_8_RCPFLSR (UniProt P13196),0.407,0.748
AHCYL1_O43865_292+293_QKFDNLYCCR (UniProt O43865),-0.0671,-0.96
ALDH18A1_P54886_546_EAVQLVNTREEVEDLCR (UniProt P54886),0.0034,-0.0393
AGPAT5_Q9NUQ2_217_ATHVAFDCMK (UniProt Q9NUQ2),-0.142,0.157
AHCYL1_O43865_317_QVVVCGYGEVGK (UniProt O43865),-0.132,-0.285
ALDH16A1_Q8IZ83_467_DPSVPTGGCK (UniProt Q8IZ83),-0.0757,-0.217
ANAPC10_Q9UM13_173_CTTIDFMMYR (UniProt Q9UM13),0.0864,0.0107

# Given tab-delimited: entries from further up
Target	probe-labelled cysteine peptide fold change (10 µM)	probe-labelled cysteine peptide fold change (50 µM)
ANAPC7_Q9UJX3_509_NALANQSDCVLHR (UniProt Q9UJX3)	0.113	-0.182
AIMP2_Q13155_143_LLCEHFR (UniProt Q13155)	-0.0723	0.013
ANAPC10_Q9UM13_173_CTTIDFMMYR (UniProt Q9UM13)	0.0864	0.0107
